Binding data for 1 substance are collected here from publication PMC11614259.

These are yes or no findings as the source states them, for the method shown. A result given as binding can be weak or reduced; the word gives no strength.

This assay addresses Far11 (striatin-interacting protein, CNAG_00008) (C. neoformans H99) (UniProt J9VFL9). Kind of assay: two-hybrid; Gal4 system; GBD fusions (pGBKT7) in Y2HGold crossed with GAD fusions (pGADT7) in Y187, 6-by-6; ADE2 and HIS3 reporters; SD dropout medium without histidine, adenine sulfate 10 mg/L, 3 mM 3-AT.

On to “Pph22 (protein phosphatase 2A catalytic C subunit, CNAG_02177) (from UniProt J9VN16) (enzyme)”, for which the binding entry is on record as “binds”.
